No constants are given. Whether binding was seen depends on the method and setting.
Biological target: MORC2 1-603 (N-terminal fragment of human MORC2) (human) (UniProt Q9Y6X9)
Experiment: SEC-MALS; 1-603 MORC2, 1 mg/ml, 50 mM NaCl, 3 mM MgCl2, 20 mM Na-HEPES pH 7.4, 0.5 mM TCEP, 1.5% glycerol, 0.025 mM ZnCl2, without AMP-PNP; Wyatt 030 column; both purified

By UniProt entry, the sequences of proteins in these tests, tags left out. Residues count along the entry.
UniProt Q9Y6X9, residues 1-603: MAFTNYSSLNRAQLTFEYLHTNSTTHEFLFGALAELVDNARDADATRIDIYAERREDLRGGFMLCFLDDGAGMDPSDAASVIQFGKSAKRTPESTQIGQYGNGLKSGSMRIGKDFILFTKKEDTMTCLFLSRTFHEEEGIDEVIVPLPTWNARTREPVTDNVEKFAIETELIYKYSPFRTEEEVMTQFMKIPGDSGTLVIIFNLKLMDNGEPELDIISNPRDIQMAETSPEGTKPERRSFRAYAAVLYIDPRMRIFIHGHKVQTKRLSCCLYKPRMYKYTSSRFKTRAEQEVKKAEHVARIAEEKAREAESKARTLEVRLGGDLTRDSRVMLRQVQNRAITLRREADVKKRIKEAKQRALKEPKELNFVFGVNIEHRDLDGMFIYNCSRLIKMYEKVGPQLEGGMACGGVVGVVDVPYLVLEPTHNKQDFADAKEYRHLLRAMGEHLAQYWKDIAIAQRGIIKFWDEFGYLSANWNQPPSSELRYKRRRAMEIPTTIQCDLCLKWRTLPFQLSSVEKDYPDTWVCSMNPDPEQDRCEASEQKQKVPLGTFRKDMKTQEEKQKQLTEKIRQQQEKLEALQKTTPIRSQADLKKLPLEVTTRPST

Substance: MORC2 1-603 (N-terminal fragment of human MORC2) (from UniProt Q9Y6X9 1-603) (domain or fragment)
- binding: no binding (condition: without AMP-PNP (1 mg/ml))

Reference: paper PMC11879086, “Identification and characterization of a human MORC2 DNA binding region that is required for gene silencing” (Nucleic Acids Research, 2024)
